{"source": "PubChem BioAssay AID652259 (Drosophila RNAi Screening Center, 2013)", "assay": "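Knock-downs that push a Wingless-driven reporter up or down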 (primary screen)", "cell system": "Drosophila clone 8 imaginal disc epithelial cells", "reagent": "long dsRNA against Drosophila genes", "challenge": "pathway stimulated by co-transfected Wingless expression plasmid", "measurement": "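Dual luciferase reads per well after Wingless plasmid stimulation: reporter firefly light and Renilla control light; activity is firefly divided by Renilla, a ratio not deposited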", "direction": "firefly reporter light: higher = more Wg reporter light, before normalisation; Renilla control light: higher = more transfected or surviving cells", "hit rule": "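Strong candidates differ from their plate mean by at least two out of four per-plate statistical tests; weak candidates meet just one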", "calls": "active = candidate regulator (raises or lowers reporter); inactive = not a candidate", "note": "The screen tested about 22,000 reagents; this is an unselected part of those with a known target gene and a result. Over the whole deposit, 233 (1.1%) got an active call. 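Light values are raw, unnormalised plate reads; the ratio scores behind the reporter calls were not deposited.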 Unmarked entries are inactive. The numbers tell different reagents against one gene apart. Not given: the amount of reagent, the time to read-out, the dose of the treatment."}
The first 3 records as a preview:
{"target gene": "mRpL35", "reagent": 1, "firefly reporter light, replicate 1": 30294, "Renilla control light, replicate 1": 5959}
{"target gene": "Osi22", "reagent": 1, "firefly reporter light, replicate 1": 14554, "Renilla control light, replicate 1": 3981}
{"target gene": "CG18371", "reagent": 1, "firefly reporter light, replicate 1": 7280, "Renilla control light, replicate 1": 2432}

Main list, from the start:
{"target gene": "mRpL35", "reagent": 1, "firefly reporter light, replicate 1": 30294, "Renilla control light, replicate 1": 5959}
{"target gene": "Osi22", "reagent": 1, "firefly reporter light, replicate 1": 14554, "Renilla control light, replicate 1": 3981}
{"target gene": "CG18371", "reagent": 1, "firefly reporter light, replicate 1": 7280, "Renilla control light, replicate 1": 2432}
{"target gene": "CG8252", "reagent": 1, "firefly reporter light, replicate 1": 6390, "Renilla control light, replicate 1": 2145}
{"target gene": "ppk10", "reagent": 1, "firefly reporter light, replicate 1": 20208, "Renilla control light, replicate 1": 10080}
{"target gene": "phyl", "reagent": 1, "firefly reporter light, replicate 1": 5586, "Renilla control light, replicate 1": 2213}
{"target gene": "Gbp1", "reagent": 1, "firefly reporter light, replicate 1": 7520, "Renilla control light, replicate 1": 2572}
{"target gene": "Ets97D", "reagent": 1, "firefly reporter light, replicate 1": 8756, "Renilla control light, replicate 1": 3952}
{"target gene": "CG8765", "reagent": 1, "firefly reporter light, replicate 1": 12394, "Renilla control light, replicate 1": 2129}
{"target gene": "CG33922", "reagent": 1, "firefly reporter light, replicate 1": 18402, "Renilla control light, replicate 1": 8715}
{"target gene": "tant", "reagent": 1, "firefly reporter light, replicate 1": 1371, "firefly reporter light, replicate 2": 5360, "Renilla control light, replicate 1": 880, "Renilla control light, replicate 2": 2626}
{"target gene": "pch2", "reagent": 1, "firefly reporter light, replicate 1": 14816, "Renilla control light, replicate 1": 3560}
{"target gene": "lz", "reagent": 1, "firefly reporter light, replicate 1": 21271, "Renilla control light, replicate 1": 10923}
{"target gene": "lz", "reagent": 2, "firefly reporter light, replicate 1": 3.34e5, "firefly reporter light, replicate 2": 4.20e5, "Renilla control light, replicate 1": 1.43e5, "Renilla control light, replicate 2": 1.67e5}
{"target gene": "CG13360", "reagent": 1, "firefly reporter light, replicate 1": 3665, "firefly reporter light, replicate 2": 13011, "Renilla control light, replicate 1": 1895, "Renilla control light, replicate 2": 4322}
{"target gene": "CG30050", "reagent": 1, "firefly reporter light, replicate 1": 16053, "Renilla control light, replicate 1": 10855}
{"target gene": "Rip11", "reagent": 1, "reporter change call, replicate 1": "Wg reporter activity lowered (active)", "firefly reporter light, replicate 1": 698, "firefly reporter light, replicate 2": 3224, "Renilla control light, replicate 1": 603, "Renilla control light, replicate 2": 2328}
{"target gene": "CG11807", "reagent": 1, "firefly reporter light, replicate 1": 9016, "Renilla control light, replicate 1": 2352}
{"target gene": "CG9313", "reagent": 1, "firefly reporter light, replicate 1": 13036, "Renilla control light, replicate 1": 1809}
{"target gene": "frtz", "reagent": 1, "firefly reporter light, replicate 1": 2119, "firefly reporter light, replicate 2": 8044, "Renilla control light, replicate 1": 774, "Renilla control light, replicate 2": 2371}
{"target gene": "cta", "reagent": 1, "firefly reporter light, replicate 1": 8368, "Renilla control light, replicate 1": 2747}
{"target gene": "Idh3b", "reagent": 1, "firefly reporter light, replicate 1": 2325, "firefly reporter light, replicate 2": 8838, "Renilla control light, replicate 1": 1094, "Renilla control light, replicate 2": 2700}
{"target gene": "Cyp313a2", "reagent": 1, "firefly reporter light, replicate 1": 15065, "Renilla control light, replicate 1": 3885}
{"target gene": "CG10104", "reagent": 1, "firefly reporter light, replicate 1": 8806, "Renilla control light, replicate 1": 2696}
{"target gene": "mbo", "reagent": 1, "firefly reporter light, replicate 1": 7420, "Renilla control light, replicate 1": 2872}
